Taken from: PubChem BioAssay AID1259424 (University of Nebraska Medical Center, 2018)

Aim: 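Find knockdowns that reproduce the expression shifts seen after KSR1 loss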 (primary screen)
System: human HCT116 colon cancer cells
Knock-down reagent: siRNA pool against human genes, 50 nM
Read-out: 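Six signature mRNAs by branched-DNA multiplex assay, scaled to two housekeeping genes and non-targeting median, log2; matched to mean KSR1 knockdown profile by Pearson correlation and euclidean distance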
Direction: mean correlation with KSR1 profile: higher = expression change more like KSR1 knockdown; mean distance from KSR1 profile: higher = expression change less like KSR1 knockdown
The whole screen tested about 14,000 reagents; shown is a part drawn at random. 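Higher correlation or smaller distance means closer resemblance to KSR1 loss; control wells, including KSR1 knockdowns, recur on many plates.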 Not all columns of the deposit are shown. Reagent sequences are not shown. The record does not give: the time to read-out.

With knock-down of FCGR3A (Fc gamma receptor IIIa), the record shows mean correlation with KSR1 profile 0.236; mean distance from KSR1 profile 2.79.
CTPS2 (CTP synthase 2) scored mean correlation with KSR1 profile -0.554; mean distance from KSR1 profile 4.18.
MEX3C (mex-3 RNA binding family member C) showed mean correlation with KSR1 profile 0.0808; mean distance from KSR1 profile 3.11.
After knock-down of EPHX2 (epoxide hydrolase 2), the screen gave mean correlation with KSR1 profile -0.454; mean distance from KSR1 profile 2.6.
Knock-down of HAAO (3-hydroxyanthranilate 3,4-dioxygenase) came out at: mean correlation with KSR1 profile -0.497; mean distance from KSR1 profile 3.01.
Knock-down of HABP4 (hyaluronan binding protein 4) gave: mean correlation with KSR1 profile -0.476; mean distance from KSR1 profile 2.29.
Against N4BP3 (NEDD4 binding protein 3) the deposit lists mean correlation with KSR1 profile 0.115; mean distance from KSR1 profile 4.64.
Against TRAK2 (trafficking kinesin protein 2), the values are mean correlation with KSR1 profile 0.0361; mean distance from KSR1 profile 2.11.
Silencing of TOP3A (DNA topoisomerase III alpha) came out at: mean correlation with KSR1 profile -0.0847; mean distance from KSR1 profile 3.28.
With knock-down of FOXS1 (forkhead box S1) the results were mean correlation with KSR1 profile 0.473; mean distance from KSR1 profile 3.37.
Against GNS (glucosamine (N-acetyl)-6-sulfatase) the deposit lists mean correlation with KSR1 profile 0.208; mean distance from KSR1 profile 2.46.
After knock-down of PHF5A (PHD finger protein 5A), the record shows mean correlation with KSR1 profile -0.18; mean distance from KSR1 profile 3.56.
Against TRERF1 (transcriptional regulating factor 1), the entry reads mean correlation with KSR1 profile 0.0396; mean distance from KSR1 profile 5.77.
Knock-down of HMOX2 (heme oxygenase 2) gave: mean correlation with KSR1 profile 0.498; mean distance from KSR1 profile 2.4.
Depletion of SNAPC4 (small nuclear RNA activating complex polypeptide 4) gave: mean correlation with KSR1 profile -0.132; mean distance from KSR1 profile 1.31.
DUX3 (double homeobox 3) gave mean correlation with KSR1 profile 0.716; mean distance from KSR1 profile 1.67.
Knock-down of OTUD3 (OTU deubiquitinase 3) gave: mean correlation with KSR1 profile 0.62; mean distance from KSR1 profile 1.22.

Reformatted: entries from further up.
Target gene	mean correlation with KSR1 profile	mean distance from KSR1 profile
MEX3C (mex-3 RNA binding family member C)	0.0808	3.11
EPHX2 (epoxide hydrolase 2)	-0.454	2.6

Additional entries:
Against TRIM52 (tripartite motif containing 52), the entry reads mean correlation with KSR1 profile 0.212; mean distance from KSR1 profile 3.45.
For EP300 (EP300 lysine acetyltransferase), the values are mean correlation with KSR1 profile -0.539; mean distance from KSR1 profile 3.4.
For CTTNBP2 (cortactin binding protein 2), the entry reads mean correlation with KSR1 profile 0.478; mean distance from KSR1 profile 1.32.
With knock-down of ARHGEF3 (Rho guanine nucleotide exchange factor 3) the results were mean correlation with KSR1 profile 0.201; mean distance from KSR1 profile 2.2.
ASTE1 (asteroid structure-specific endonuclease 1) scored mean correlation with KSR1 profile -0.63; mean distance from KSR1 profile 2.35.
After knock-down of MPO (myeloperoxidase) the results were mean correlation with KSR1 profile 0.632; mean distance from KSR1 profile 0.748.
Against FBXO32 (F-box protein 32), the values are mean correlation with KSR1 profile 0.423; mean distance from KSR1 profile 1.61.
Against ATP5PO (ATP synthase peripheral stalk subunit OSCP), the values are mean correlation with KSR1 profile 0.219; mean distance from KSR1 profile 1.85.
After knock-down of LPL (lipoprotein lipase) the results were mean correlation with KSR1 profile 0.321; mean distance from KSR1 profile 3.08.
For DDX24 (DEAD-box helicase 24), the values are mean correlation with KSR1 profile -0.143; mean distance from KSR1 profile 4.95.
Silencing of AD7C-NTP (retired record) came out at: mean correlation with KSR1 profile -0.445; mean distance from KSR1 profile 2.83.
